{"source": "patent US10280416B1", "about": "“Magnetic ionic liquids, methods of making and uses thereof as solvents in the extraction and preservation of nucleic acids” (The University of Toledo, priority 2015, dated 2019)", "test": "solubility of MILs in water", "assay_type": "physicochemical", "details": "% (w/v) MIL in water", "excerpt": "Independent of the substituent functional groups imparted by the quaternization reaction, MILs 1-3 were immiscible with water at compositions as low as 0.1% (w/v) MIL. The hydrophobic properties of the monocationic MILs are thus useful for applications such as aqueous liquid-liquid microextractions, where extremely low phase ratios of extraction solvent are employed.", "note": "Some results were stated once for a whole list of compounds, not compound by compound. At least one structure is not confirmed: it was looked up by name or label, or the drawing left a doubt.", "data": [{"smiles": "CCCCCCCCSCCC[n+]1ccn(Cc2cc(Cn3cc[n+](CCCSCCCCCCCC)c3)cc(Cn3cc[n+](CCCSCCCCCCCC)c3)c2)c1.[Cl][Fe-]([Cl])([Cl])[Br].[Cl][Fe-]([Cl])([Cl])[Br].[Cl][Fe-]([Cl])([Cl])[Br]", "note": "[MIL 11]", "values": [{"measurement": "water solubility (insoluble at stated composition)", "value": "< 0.25 % (w/v)"}]}]}
